Laboratory results as given in US20220202774A1, “PHARMACEUTICAL COMPOSITION FOR PREVENTION OR TREATMENT OF SPINAL CORD INJURY OR SPINAL STENOSIS” (NEUROBIT SCIENCE CO., LTD., priority 2019, published 2022).
For at least one compound, name, drawing or mass did not settle the structure.

How the values were obtained:
[1] = tested on: LPS-induced PGE2 production in RAW 264.7 (a murine macrophage cell line); conditions: value from reference literature (Bioorg. Med. Chem. Lett. (2012), Kaur, J. et al.); cited from earlier work
PGE2 = PGE2 level in cauda equina fibers by ELISA; type: in vivo, Sprague-Dawley rats
Procedure: (§1) Only rats with a weight in the range of 350 to 380 g and in which chronic mechanical allodynia (2.5-4.0 g) was induced on the 28th day of compression of the cauda equina were selected as the experimental group. The rats were randomly assigned to three experimental groups treated with a vehicle, celecoxib, or the compound according to the present invention.
(§2) Celecoxib (Sigma, St. Louis, Mo.) or the compound according to the present invention was dissolved in methyl pyrrolidone:Tween-80:saline (1:1:8, 100 μl) and injected intraperitoneally at a dose of 2, 5, or 10 mg/kg. The vehicle group was injected with 1-methyl-2-pyrrolidone (1-methyl-2-pyrrolidone:Tween-80:saline (1:1:8)) at an equal dose.
(§3) For analysis at the molecular level, the rats were perfused with 0.1 M PBS, and a 20 mm-thick section of the cauda equina with the site of injury at the center was isolated and kept frozen at −80° C. until use.
Levels of PEG2 in the cauda equina fibers were analyzed using a PEG2 ELISA kit (Monoclonal, Cayman Chemical Ann Arbor, Mich.) according to the manufacturer's instructions.
An experiment was performed using rats administered with celecoxib and the compound according to the present invention to confirm through RT-PCR whether production of inflammatory mediators is inhibited. Another experiment was performed to confirm through ELISA whether production of PGE2 is inhibited.

[2] = tested on: chronic mechanical allodynia-induced rats; assay: Paw withdrawal threshold (von Frey) in chronic mechanical allodynia-induced rats after compression of the cauda equina; type: in vivo, Sprague-Dawley rats; conditions: 10 mg/kg intraperitoneal, 28th day after injury
Procedure: For experiments related to the present invention, a total of 167 male Sprague-Dawley rats (250 to 270 g, Samtako, Osan, Korea) were used. The rats were kept in an environment of room temperature (23±1° C.) and 60±10% humidity under a 12-hour light/12-hour dark cycle (light on from 07:30 to 19:30) and given free access to water and food. The rats were housed individually in cages (410×282×153 mm, clear polycarbonate) lined with aspen shaving bedding and fed a commercial diet (5L79, PMI Nutrition International, St Louis, Mo.) and a commercial standard feed (Lab Diet 5L791 Purina Mills, Richmond, Ind.). All animal experiments were performed in accordance with the guidelines of the Animal Protection Committee of Kyung Hee University (Permission No. KHUASP(SE)-15-006) and in compliance with the ethical guidelines of the International Association for the Study of Pain.
More specifically, the rats were anesthetized by administering chloral hydrate (500 mg/kg) as an intraperitoneal injection, the backside of each rat was shaved, and the L4 to S2 vertebral plates were exposed.
Next, the ligamenta flava between L4 and L5 were removed. […]
Mechanical allodynia was assessed by detecting responses to stimulation with calibrated von Frey filaments and evaluated in terms of paw withdrawal threshold (PWT). […]

IL-6 mRNA = assay: RT-PCR of IL-6 mRNA in cauda equina of chronic mechanical allodynia-induced rats; type: in vivo, Sprague-Dawley rats; conditions: 30 minutes after administering
Procedure: as §1, §2
(§4) At the time of the peak effect (30 minutes after injection of drug), the rats were anesthetized by injecting chloral hydrate (500 mg/kg) and perfused with 0.1 M PBS (pH 7.4), followed by perfusion with a solution containing 4% paraformaldehyde added to PBS.
as §3
(§5) RT-PCR of TNF-α, IL-1β, IL-6, iNOS, and GAPDH was performed. […]

iNOS mRNA = assay: RT-PCR of iNOS mRNA in cauda equina of chronic mechanical allodynia-induced rats; type: in vivo, Sprague-Dawley rats; conditions: 30 minutes after administering
Procedure: as §1, §2, §4, §3, §5

TNF-α mRNA = assay: RT-PCR of TNF-α mRNA in cauda equina of chronic mechanical allodynia-induced rats; type: in vivo, Sprague-Dawley rats; conditions: 30 minutes after administering
Procedure: as §1, §2, §4, §3, §5

For Cc1ccc(-c2cc(C(F)(F)F)nn2-c2ccc(S(N)(=O)=O)cc2)cc1 [Celecoxib, reference compound], the IC50 [1] is listed as 0.008 µM, the “PGE2 production compared to the vehicle group” value (PGE2) is listed as “significantly reduced” and the “PWT compared to the vehicle group” value ([2]; 30 minutes after injecting) is listed as “increased significantly”. The “PWT compared to the vehicle group” value ([2]; 60 minutes after injecting) was “increased significantly”, the “expression of IL-6 mRNA” value (IL-6 mRNA) was “significantly reduced” and the “expression of iNOS mRNA” value (iNOS mRNA) was “significantly reduced”. The “expression of TNF-α mRNA” value (TNF-α mRNA) was “significantly reduced”.
